This is one part of the list.
Compound: c1cn2cc(-c3ccc4cn[nH]c4c3)nc(Nc3ccc(N4CCOCC4)cc3)c2n1 [entospletinib]
Experiment: log2 fold change, soluble protein after heating vs DMSO (PISA); higher = thermal stabilisation; K562 cells, 10 uM, 30 min; active = over 0.2 and 3.5 SD of the protein, either way, in both replicates (recomputed)
Outline: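 K562 cells (2×10^6 cells/mL) were treated with 10 μM compound for 30 min, and aliquots were heated for 3 min over 48°C-58°C. Pooled aliquots were extracted in PBS with 0.5% NP-40 at 4°C, and the supernatant after 21,000xg for 90 min was measured by TMTpro 16plex LC-MS/MS with channel sums equalised. Reported thermal stability, relative to control samples and from duplicates, is a log2 fold change.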

Chains of the proteins cited; added tags and fusions are not shown. Lines headed by an entry give the natural chain unless they say otherwise; changes in a name come on top.
UniProt Q9BW85: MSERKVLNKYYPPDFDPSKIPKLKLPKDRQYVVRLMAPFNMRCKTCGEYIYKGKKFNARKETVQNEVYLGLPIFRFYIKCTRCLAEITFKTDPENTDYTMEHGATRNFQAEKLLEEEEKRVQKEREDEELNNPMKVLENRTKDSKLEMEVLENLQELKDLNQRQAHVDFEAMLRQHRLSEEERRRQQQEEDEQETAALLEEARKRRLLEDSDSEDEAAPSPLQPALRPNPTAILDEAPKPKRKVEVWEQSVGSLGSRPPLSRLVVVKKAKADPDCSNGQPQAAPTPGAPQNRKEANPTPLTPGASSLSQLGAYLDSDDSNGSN
UniProt Q9HBF4: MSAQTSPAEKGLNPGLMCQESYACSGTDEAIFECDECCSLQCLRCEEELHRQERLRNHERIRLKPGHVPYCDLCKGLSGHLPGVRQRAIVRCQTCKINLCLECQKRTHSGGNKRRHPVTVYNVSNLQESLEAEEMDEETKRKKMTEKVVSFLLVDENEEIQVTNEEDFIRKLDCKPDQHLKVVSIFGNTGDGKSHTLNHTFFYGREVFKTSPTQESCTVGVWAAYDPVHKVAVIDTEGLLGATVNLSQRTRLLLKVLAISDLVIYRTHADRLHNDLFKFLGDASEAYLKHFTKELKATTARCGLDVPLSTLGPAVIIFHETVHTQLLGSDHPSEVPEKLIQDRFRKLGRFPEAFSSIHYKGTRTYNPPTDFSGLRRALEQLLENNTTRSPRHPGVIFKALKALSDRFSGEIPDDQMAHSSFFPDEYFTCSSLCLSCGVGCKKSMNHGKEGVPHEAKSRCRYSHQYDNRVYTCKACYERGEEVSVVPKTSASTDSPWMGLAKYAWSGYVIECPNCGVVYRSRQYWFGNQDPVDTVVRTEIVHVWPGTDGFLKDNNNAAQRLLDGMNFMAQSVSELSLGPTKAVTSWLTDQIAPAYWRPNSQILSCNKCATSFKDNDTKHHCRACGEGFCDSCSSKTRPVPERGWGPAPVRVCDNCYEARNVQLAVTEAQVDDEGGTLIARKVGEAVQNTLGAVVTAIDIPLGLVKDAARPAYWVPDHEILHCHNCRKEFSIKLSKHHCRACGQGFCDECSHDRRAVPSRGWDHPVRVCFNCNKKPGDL
UniProt Q9ULJ6: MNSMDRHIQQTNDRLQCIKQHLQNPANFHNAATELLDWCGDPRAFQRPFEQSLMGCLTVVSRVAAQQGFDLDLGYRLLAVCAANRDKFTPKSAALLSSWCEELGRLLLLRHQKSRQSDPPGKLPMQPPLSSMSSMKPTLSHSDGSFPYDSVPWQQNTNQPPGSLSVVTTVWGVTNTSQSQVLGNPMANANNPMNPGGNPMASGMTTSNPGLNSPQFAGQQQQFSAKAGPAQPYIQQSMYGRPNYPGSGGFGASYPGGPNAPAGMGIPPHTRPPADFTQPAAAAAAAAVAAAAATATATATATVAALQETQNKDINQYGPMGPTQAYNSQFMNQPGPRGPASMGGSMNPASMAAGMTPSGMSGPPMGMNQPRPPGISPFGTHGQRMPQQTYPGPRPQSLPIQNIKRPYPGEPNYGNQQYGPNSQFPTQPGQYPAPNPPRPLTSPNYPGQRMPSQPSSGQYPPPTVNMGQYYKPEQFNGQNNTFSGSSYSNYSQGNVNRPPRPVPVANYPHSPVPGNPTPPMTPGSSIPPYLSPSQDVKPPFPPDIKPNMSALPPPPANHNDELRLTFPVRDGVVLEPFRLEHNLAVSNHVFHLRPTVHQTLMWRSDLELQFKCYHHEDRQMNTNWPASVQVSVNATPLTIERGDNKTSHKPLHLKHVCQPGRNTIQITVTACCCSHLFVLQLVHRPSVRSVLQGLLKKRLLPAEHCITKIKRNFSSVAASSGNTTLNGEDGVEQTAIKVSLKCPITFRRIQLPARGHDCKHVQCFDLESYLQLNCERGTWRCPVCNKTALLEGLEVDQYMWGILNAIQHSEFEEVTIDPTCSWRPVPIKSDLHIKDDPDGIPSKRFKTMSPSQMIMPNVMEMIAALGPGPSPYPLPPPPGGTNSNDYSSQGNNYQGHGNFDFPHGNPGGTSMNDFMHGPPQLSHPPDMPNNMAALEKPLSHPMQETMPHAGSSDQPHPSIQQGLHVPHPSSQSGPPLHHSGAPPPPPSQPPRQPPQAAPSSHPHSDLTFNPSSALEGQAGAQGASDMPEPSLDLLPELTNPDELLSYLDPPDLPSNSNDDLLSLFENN
UniProt Q8IY57: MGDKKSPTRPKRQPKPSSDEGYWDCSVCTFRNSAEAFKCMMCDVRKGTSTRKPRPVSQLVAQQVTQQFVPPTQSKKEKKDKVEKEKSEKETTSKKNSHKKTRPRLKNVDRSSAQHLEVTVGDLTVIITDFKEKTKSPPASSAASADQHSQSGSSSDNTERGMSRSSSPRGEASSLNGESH
UniProt Q96DT7: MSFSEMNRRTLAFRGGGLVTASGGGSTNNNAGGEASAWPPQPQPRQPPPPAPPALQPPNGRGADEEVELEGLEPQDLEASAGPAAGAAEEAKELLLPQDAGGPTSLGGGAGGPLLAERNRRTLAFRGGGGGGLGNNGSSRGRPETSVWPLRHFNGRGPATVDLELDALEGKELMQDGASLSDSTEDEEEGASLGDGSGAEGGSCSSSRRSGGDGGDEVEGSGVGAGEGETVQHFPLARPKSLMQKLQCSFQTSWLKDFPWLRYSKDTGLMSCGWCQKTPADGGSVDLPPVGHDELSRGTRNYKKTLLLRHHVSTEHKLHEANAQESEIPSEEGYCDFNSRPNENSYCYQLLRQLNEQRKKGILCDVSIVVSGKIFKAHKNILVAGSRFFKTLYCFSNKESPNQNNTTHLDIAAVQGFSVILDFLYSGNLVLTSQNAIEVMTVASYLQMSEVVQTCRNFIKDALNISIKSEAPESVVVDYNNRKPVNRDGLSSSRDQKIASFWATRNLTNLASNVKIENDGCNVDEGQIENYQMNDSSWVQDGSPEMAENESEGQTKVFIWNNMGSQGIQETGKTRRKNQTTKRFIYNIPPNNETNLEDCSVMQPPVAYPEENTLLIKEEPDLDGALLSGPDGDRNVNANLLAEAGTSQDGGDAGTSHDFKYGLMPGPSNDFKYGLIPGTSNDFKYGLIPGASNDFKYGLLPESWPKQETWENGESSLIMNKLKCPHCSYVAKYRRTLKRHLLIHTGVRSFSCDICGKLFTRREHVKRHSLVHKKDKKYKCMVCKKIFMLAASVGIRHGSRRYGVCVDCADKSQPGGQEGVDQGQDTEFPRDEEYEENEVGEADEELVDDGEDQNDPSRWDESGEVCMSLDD
UniProt Q9UBH6: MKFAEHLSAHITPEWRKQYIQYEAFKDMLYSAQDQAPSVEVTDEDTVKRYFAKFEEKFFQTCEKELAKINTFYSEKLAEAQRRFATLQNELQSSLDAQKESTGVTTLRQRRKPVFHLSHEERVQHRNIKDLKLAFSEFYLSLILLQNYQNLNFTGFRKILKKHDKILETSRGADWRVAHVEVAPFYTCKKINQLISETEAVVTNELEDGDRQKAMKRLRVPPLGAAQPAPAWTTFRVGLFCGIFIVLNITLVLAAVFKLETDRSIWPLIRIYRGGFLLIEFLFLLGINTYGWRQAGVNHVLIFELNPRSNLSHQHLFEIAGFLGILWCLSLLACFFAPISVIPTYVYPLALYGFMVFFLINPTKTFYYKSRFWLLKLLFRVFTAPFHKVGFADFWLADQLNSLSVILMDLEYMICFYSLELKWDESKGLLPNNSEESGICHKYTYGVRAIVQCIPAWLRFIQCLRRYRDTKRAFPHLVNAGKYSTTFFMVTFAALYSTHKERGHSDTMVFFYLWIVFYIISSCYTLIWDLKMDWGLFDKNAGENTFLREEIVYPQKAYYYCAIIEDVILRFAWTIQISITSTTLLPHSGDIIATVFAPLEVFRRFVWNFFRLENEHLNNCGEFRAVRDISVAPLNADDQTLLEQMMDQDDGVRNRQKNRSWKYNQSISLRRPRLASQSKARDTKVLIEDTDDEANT
UniProt Q86T24: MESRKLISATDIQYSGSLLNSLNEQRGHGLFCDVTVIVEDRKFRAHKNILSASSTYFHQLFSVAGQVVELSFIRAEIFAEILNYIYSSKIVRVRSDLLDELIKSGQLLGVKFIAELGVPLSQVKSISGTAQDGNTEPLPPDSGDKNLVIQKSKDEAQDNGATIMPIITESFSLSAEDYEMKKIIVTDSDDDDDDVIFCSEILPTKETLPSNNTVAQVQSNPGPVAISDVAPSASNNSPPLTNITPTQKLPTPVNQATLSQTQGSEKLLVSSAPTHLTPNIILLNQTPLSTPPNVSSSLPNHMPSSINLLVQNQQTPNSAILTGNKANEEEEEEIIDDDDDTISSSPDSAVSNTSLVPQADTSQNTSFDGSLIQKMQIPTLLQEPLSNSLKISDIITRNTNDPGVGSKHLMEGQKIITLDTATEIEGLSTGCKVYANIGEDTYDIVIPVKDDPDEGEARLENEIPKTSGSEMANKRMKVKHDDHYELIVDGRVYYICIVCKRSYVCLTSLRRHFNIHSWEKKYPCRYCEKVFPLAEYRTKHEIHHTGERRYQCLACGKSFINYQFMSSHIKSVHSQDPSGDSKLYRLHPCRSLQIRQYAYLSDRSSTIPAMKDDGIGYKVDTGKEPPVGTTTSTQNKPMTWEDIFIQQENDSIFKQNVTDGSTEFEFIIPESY
UniProt O75152: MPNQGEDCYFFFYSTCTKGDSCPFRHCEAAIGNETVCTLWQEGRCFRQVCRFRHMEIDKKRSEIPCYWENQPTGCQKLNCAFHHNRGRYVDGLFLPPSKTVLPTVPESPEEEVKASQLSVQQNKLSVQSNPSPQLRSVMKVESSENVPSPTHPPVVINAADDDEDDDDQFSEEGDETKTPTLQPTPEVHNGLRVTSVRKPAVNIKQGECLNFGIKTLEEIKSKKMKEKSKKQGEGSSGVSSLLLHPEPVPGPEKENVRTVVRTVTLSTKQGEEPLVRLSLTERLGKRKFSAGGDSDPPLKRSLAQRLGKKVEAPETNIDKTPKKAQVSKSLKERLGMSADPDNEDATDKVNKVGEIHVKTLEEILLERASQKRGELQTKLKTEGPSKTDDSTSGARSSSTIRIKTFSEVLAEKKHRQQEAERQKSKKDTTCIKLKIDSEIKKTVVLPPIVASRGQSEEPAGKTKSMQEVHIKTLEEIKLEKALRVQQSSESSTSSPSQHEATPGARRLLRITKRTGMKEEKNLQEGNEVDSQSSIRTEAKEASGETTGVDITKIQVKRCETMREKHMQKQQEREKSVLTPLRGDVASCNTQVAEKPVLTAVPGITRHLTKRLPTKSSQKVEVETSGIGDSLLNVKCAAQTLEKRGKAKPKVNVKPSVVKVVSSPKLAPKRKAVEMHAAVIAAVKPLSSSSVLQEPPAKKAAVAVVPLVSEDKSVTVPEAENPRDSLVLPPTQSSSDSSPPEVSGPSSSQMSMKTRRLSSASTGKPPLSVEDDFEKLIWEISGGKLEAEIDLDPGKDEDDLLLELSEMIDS
UniProt Q9C0E2: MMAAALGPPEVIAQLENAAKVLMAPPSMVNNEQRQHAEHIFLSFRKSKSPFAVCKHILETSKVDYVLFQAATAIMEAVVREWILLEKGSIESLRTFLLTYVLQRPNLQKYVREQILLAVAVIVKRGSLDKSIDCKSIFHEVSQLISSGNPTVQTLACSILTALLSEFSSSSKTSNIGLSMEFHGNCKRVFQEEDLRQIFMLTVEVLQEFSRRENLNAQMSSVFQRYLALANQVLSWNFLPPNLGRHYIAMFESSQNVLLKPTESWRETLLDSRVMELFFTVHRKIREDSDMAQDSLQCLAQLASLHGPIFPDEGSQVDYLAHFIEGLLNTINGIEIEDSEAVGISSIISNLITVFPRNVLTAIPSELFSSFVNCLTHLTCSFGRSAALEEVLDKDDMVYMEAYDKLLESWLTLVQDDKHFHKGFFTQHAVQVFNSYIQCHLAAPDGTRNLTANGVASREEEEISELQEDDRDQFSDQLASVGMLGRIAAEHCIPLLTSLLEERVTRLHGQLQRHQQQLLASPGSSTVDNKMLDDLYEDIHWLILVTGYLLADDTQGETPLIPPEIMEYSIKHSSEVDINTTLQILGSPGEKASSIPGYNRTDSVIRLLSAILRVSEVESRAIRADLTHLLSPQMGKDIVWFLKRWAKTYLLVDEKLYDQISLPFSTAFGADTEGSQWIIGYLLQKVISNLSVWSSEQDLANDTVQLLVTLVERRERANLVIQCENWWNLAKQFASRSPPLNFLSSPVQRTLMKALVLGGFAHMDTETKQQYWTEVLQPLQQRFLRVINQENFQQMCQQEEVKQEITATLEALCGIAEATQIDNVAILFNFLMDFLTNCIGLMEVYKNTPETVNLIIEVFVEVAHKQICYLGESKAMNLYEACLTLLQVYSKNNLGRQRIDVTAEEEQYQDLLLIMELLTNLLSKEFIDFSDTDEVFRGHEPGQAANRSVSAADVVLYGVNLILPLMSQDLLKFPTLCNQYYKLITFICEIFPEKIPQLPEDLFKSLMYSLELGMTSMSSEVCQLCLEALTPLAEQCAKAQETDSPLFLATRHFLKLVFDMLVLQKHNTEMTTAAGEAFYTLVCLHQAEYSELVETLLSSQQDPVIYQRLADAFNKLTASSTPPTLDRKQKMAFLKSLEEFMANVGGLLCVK

log2 fold change, inactive:
XK (UniProt P51811) 0.047, ZFYVE9 (UniProt O95405) 0.218, YJU2 (UniProt Q9BW85) -0.034, ZCCHC8 (UniProt Q6NZY4) 0.011, ZCRB1 (UniProt Q8TBF4) 0.094, ZFYVE1 (UniProt Q9HBF4) -0.063, ZMIZ1 (UniProt Q9ULJ6) -0.069, XPO7 (UniProt E7ESC6) 0.003, XIRP2 isoform 8 (UniProt A4UGR9) -0.051, YTHDF2 (UniProt Q9Y5A9) 0.035, YARS (UniProt P54577) 0.028, ZMPSTE24 (UniProt O75844) -0.007, ZC2HC1A (UniProt Q96GY0) 0.06, ZDHHC2 (UniProt Q9UIJ5) -0.092, ZC3H15 (UniProt Q8WU90) 0.027, YAF2 isoform 5 (UniProt Q8IY57) -0.189, ZBTB10 (UniProt Q96DT7) 0.02, ZBTB7B isoform 2 (UniProt O15156) 0.22, XPR1 (UniProt Q9UBH6) -0.025, ZBTB33 (UniProt Q86T24) -0.171, XPC (UniProt Q01831) 0.107, ZC3H11A (UniProt O75152) -0.176, ZDHHC3 isoform 2 (UniProt Q9NYG2) -0.021, YIPF3 (UniProt Q9GZM5) 0.028, YBX3 isoform 2 (UniProt P16989) 0.092, YWHAH (UniProt Q04917) 0.003, ZKSCAN8 (UniProt Q15776) 0.14, XP32 (UniProt Q5T750) -0.406, XRN2 (UniProt Q9H0D6) -0.038, XXYLT1 (UniProt Q8NBI6) -0.013, YARS2 (UniProt Q9Y2Z4) 0.024, ZDHHC18 (UniProt Q9NUE0) 0.185, ZDHHC14 (UniProt Q8IZN3) -0.185, YBX3 (UniProt P16989) 0.195, ZMYM4 (UniProt Q5VZL5) -0.179, ZBTB7A (UniProt O95365) -0.128, ZDHHC13 (UniProt Q8IUH4) 0.038, XPO4 (UniProt Q9C0E2) 0.021, ZBTB8OS (UniProt Q8IWT0) 0.124, ZFAND2B (UniProt Q8WV99) -0.098

From the supplement of paper PMC10849652
